Experimental data as given in the supplement of paper PMC8728848.
Some of the results follow.

Legend:
Experiment in all cases: glycan array binding signal (z-score within array); higher = stronger binding
Settings in all cases: glycan notation: IUPAC condensed, linker removed
[1] = molecular target: Neu5Ac(a2-3)Gal(b1-4)GlcNAc(b1-3)[Neu5Ac(a2-3)Gal(b1-4)GlcNAc(b1-6)]GalNAc
Summary of the method: (§1)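 Glycan array data were curated from 3228 arrays in the Consortium for Functional Glycomics database and kept only where the protein sequence was available. Glycan names were converted to IUPAC-condensed notation, and columns mapping to the same glycan were averaged. The binding signal is a within-array Z-score, averaged across arrays of the same protein sequence at different concentrations or buffers and across linkers. Negative Z-scores can be read as non-binding.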

[2] = molecular target: Neu5Ac(a2-3)Gal(b1-4)GlcNAc(b1-6)GalNAc
Summary of the method: as §1

[3] = molecular target: Neu5Ac(a2-3)Gal(b1-4)GlcNAc(b1-6)[Gal(b1-3)]GalNAc
Summary of the method: as §1

[4] = molecular target: Neu5Ac(a2-3)Gal(b1-4)GlcNAc(b1-6)[Neu5Ac(a2-3)Gal(b1-3)]GalNAc
Summary of the method: as §1

[5] = molecular target: Neu5Ac(a2-3)Gal(b1-4)GlcNAc6S
Summary of the method: as §1

[6] = molecular target: Neu5Ac(a2-3)Gal(b1-4)[Fuc(a1-3)]GlcNAc
Summary of the method: as §1

[7] = molecular target: Neu5Ac(a2-3)Gal(b1-4)[Fuc(a1-3)]GlcNAc(b1-2)Man
Summary of the method: as §1

[8] = molecular target: Neu5Ac(a2-3)Gal(b1-4)[Fuc(a1-3)]GlcNAc(b1-3)Gal
Summary of the method: as §1

[9] = molecular target: Neu5Ac(a2-3)Gal(b1-4)[Fuc(a1-3)]GlcNAc(b1-3)Gal(b1-4)GlcNAc
Summary of the method: as §1

[10] = molecular target: Neu5Ac(a2-3)Gal(b1-4)[Fuc(a1-3)]GlcNAc(b1-3)Gal(b1-4)[Fuc(a1-3)]GlcNAc(b1-3)Gal(b1-4)[Fuc(a1-3)]GlcNAc
Summary of the method: as §1

[11] = molecular target: Neu5Ac(a2-3)Gal(b1-4)[Fuc(a1-3)]GlcNAc(b1-3)GalNAc
Summary of the method: as §1

[12] = molecular target: Neu5Ac(a2-3)Gal(b1-4)[Fuc(a1-3)]GlcNAc(b1-6)[Gal(b1-3)]GalNAc
Summary of the method: as §1

[13] = molecular target: Neu5Ac(a2-3)Gal(b1-4)[Fuc(a1-3)]GlcNAc(b1-6)[Neu5Ac(a2-3)Gal(b1-3)]GalNAc
Summary of the method: as §1

[14] = molecular target: Neu5Ac(a2-3)Gal(b1-4)[Fuc(a1-3)]GlcNAc6S
Summary of the method: as §1

[15] = molecular target: Neu5Ac(a2-3)Gal6S(b1-4)GlcNAc
Summary of the method: as §1

[16] = molecular target: Neu5Ac(a2-3)Gal6S(b1-4)[Fuc(a1-3)]GlcNAc
Summary of the method: as §1

Neu5Ac(a2-3)GalNAc = molecular target: Neu5Ac(a2-3)GalNAc
Summary of the method: as §1

[17] = molecular target: Neu5Ac(a2-3)GalNAc(b1-4)GlcNAc
Summary of the method: as §1

[18] = molecular target: Neu5Ac(a2-3)[GalNAc(b1-4)]Gal(b1-4)Glc
Summary of the method: as §1

[19] = molecular target: Neu5Ac(a2-3)[GalNAc(b1-4)]Gal(b1-4)GlcNAc
Summary of the method: as §1

[20] = molecular target: Neu5Ac(a2-3)[GalNAc(b1-4)]Gal(b1-4)GlcNAc(b1-3)GalNAc
Summary of the method: as §1

[21] = molecular target: Neu5Ac(a2-3)[Neu5Ac(a2-6)]GalNAc
Summary of the method: as §1

Neu5Ac(a2-6)Gal = molecular target: Neu5Ac(a2-6)Gal
Summary of the method: as §1

[22] = molecular target: Neu5Ac(a2-6)Gal(b1-3)GlcNAc(b1-3)[Gal(b1-4)GlcNAc(b1-6)]Gal(b1-4)Glc
Summary of the method: as §1

Neu5Ac(a2-6)Gal(b1-4)Glc = molecular target: Neu5Ac(a2-6)Gal(b1-4)Glc
Summary of the method: as §1

[23] = molecular target: Neu5Ac(a2-6)Gal(b1-4)GlcNAc
Summary of the method: as §1

[24] = molecular target: Neu5Ac(a2-6)Gal(b1-4)GlcNAc(b1-2)Man
Summary of the method: as §1

[25] = molecular target: Neu5Ac(a2-6)Gal(b1-4)GlcNAc(b1-2)Man(a1-3)Man(b1-4)GlcNAc(b1-4)GlcNAc
Summary of the method: as §1

[26] = molecular target: Neu5Ac(a2-6)Gal(b1-4)GlcNAc(b1-2)Man(a1-3)[Gal(b1-4)GlcNAc(b1-2)Man(a1-6)]Man(b1-4)GlcNAc(b1-4)GlcNAc
Summary of the method: as §1

[27] = molecular target: Neu5Ac(a2-6)Gal(b1-4)GlcNAc(b1-2)Man(a1-3)[GlcNAc(b1-2)Man(a1-6)]Man(b1-4)GlcNAc(b1-4)GlcNAc
Summary of the method: as §1

[28] = molecular target: Neu5Ac(a2-6)Gal(b1-4)GlcNAc(b1-2)Man(a1-3)[GlcNAc(b1-4)][Neu5Ac(a2-6)Gal(b1-4)GlcNAc(b1-2)Man(a1-6)]Man(b1-4)GlcNAc(b1-4)GlcNAc
Summary of the method: as §1

B1: Epa11 (Candida glabrata) (protein)
chain: MGSSHHHHHHSSGLVPRGSHMASSNAPNYPVGCSPSVGTQLTPGLSLEVYAYPMDGNNGYCWNATYKDPEFPRSGYLKNKLLGKADGVVGPLNFLAKNKDCSPKVDTLPAGFNFPQPITVTNFTMVLFGYLAPKQSGKYTFKLLADDLLLLNLGATNAFDCCNREATKNNLGEFLAYNLWPNQDKNVTVYLEKGVYYPLRLFFNNRDGGSQLDFSYYFNDSPAPLTDFSGMFFSVPDGAECPARI
B1 was tested, and the “glycan array binding signal (z-score)” value [1] was 0.121, the “glycan array binding signal (z-score)” value [2] was -0.259 and the “glycan array binding signal (z-score)” value [3] was -0.044. The “glycan array binding signal (z-score)” value [4] was -0.742, the “glycan array binding signal (z-score)” value [5] was -0.474 and the “glycan array binding signal (z-score)” value [6] was 1.08. For the same binder, the “glycan array binding signal (z-score)” value [7] was -0.418, the “glycan array binding signal (z-score)” value [8] was 0.704 and the “glycan array binding signal (z-score)” value [9] was 0.211. The “glycan array binding signal (z-score)” value [10] was -0.51, the “glycan array binding signal (z-score)” value [11] was 1.7 and the “glycan array binding signal (z-score)” value [12] was 1.02. For the same binder, the “glycan array binding signal (z-score)” value [13] was 0.772, the “glycan array binding signal (z-score)” value [14] was -0.345 and the “glycan array binding signal (z-score)” value [15] was -0.645. The “glycan array binding signal (z-score)” value [16] was -0.242, the “glycan array binding signal (z-score)” value (Neu5Ac(a2-3)GalNAc) was -0.08 and the “glycan array binding signal (z-score)” value [17] was 0.122. For the same binder, the “glycan array binding signal (z-score)” value [18] was 0.153, the “glycan array binding signal (z-score)” value [19] was 0.022 and the “glycan array binding signal (z-score)” value [20] was -0.16. For the same binder, the “glycan array binding signal (z-score)” value [21] was -0.124, the “glycan array binding signal (z-score)” value (Neu5Ac(a2-6)Gal) was 0.038 and the “glycan array binding signal (z-score)” value [22] was -0.326. The “glycan array binding signal (z-score)” value (Neu5Ac(a2-6)Gal(b1-4)Glc) was -0.541, the “glycan array binding signal (z-score)” value [23] was -0.853 and the “glycan array binding signal (z-score)” value [24] was 0.902. For the same binder, the “glycan array binding signal (z-score)” value [25] was 0.243, the “glycan array binding signal (z-score)” value [26] was -0.37 and the “glycan array binding signal (z-score)” value [27] was -0.21. The “glycan array binding signal (z-score)” value [28] was -0.77.
